# Measurements reported in PubChem BioAssay AID720505 (Drosophila RNAi Screening Center, 2013).
# Test: 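Genes needed for store-operated calcium entry in fly cells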 (primary screen)
# Cells: Drosophila S2R+ cells
# Reagents: long dsRNA against Drosophila genes
# Treatment: thapsigargin (2 µM) in calcium-free buffer to empty internal stores, then 2 mM calcium added back
# Read-out: 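Fluo-4 signal in 384-well plates read on a FLIPR after thapsigargin (2 µM, calcium-free) store depletion and 2 mM calcium add-back; unnormalised mean endpoint per well; screen run twice, selected wells retested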
# Reading the numbers: calcium signal: higher = more calcium entry after store depletion
# Hit rule: 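Knock-downs counted as hits when calcium entry dropped relative to STIM1 positive and Rho1 negative controls present on each plate; roughly 1500 genes called, with reductions of differing size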
# Meaning of the calls: active = called as lowering calcium entry; inactive = not called
# The deposit covers about 20,000 reagents; this is an unselected part of those that have a named target and a result. Over the whole deposit, about 2,100 (10%) were called active. 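Raw plate signals without normalisation; calls rest on control-based scores that were not deposited; replicate 2 separates called from uncalled poorly.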 A plus sign joins genes that one reagent is predicted to hit. Not stated in the record: the amount of reagent, the time to read-out.
Target gene,amplicon,"calcium signal, replicate 1","calcium signal, replicate 2",outcome
CG32137,DRSC10271,151,116,inactive
CG32137,DRSC10272,134,102,inactive
KFase (Kynurenine formamidase),DRSC03258,110,99.5,inactive
CG13991,DRSC02323,159,80.9,inactive
Papss (PAPS synthetase),DRSC11246,150,119,inactive
Prp3 (Precursor RNA processing 3),DRSC10912,75.4,106,inactive
CG3407,DRSC00603,107,167,inactive
Bili (Band4.1 inhibitor LRP interactor),DRSC14405,233,270,inactive
l(1)G0196 (lethal (1) G0196),DRSC20591,115,13249,inactive
l(1)G0196 (lethal (1) G0196),DRSC20629,144,115,inactive
lncRNA:CR32657 (long non-coding RNA:CR32657),DRSC19403,120,95.7,inactive
CG10702,DRSC02097,96.4,123,inactive
Mlp84B (Muscle LIM protein at 84B),DRSC12596,127,179,inactive
Prosbeta3 (Proteasome beta3 subunit),DRSC16801,86.2,97.4,active

Next part, starting with the last 4 of the part before.
Target gene,amplicon,"calcium signal, replicate 1","calcium signal, replicate 2",outcome
lncRNA:CR32657 (long non-coding RNA:CR32657),DRSC19403,120,95.7,inactive
CG10702,DRSC02097,96.4,123,inactive
Mlp84B (Muscle LIM protein at 84B),DRSC12596,127,179,inactive
Prosbeta3 (Proteasome beta3 subunit),DRSC16801,86.2,97.4,active
MED28 (Mediator complex subunit 28),DRSC15721,239,114,inactive
CG2256,DRSC18220,237,133,inactive
CG13594,DRSC04229,151,222,inactive
CG13594,DRSC23254,109,169,inactive
sty (sprouty),DRSC08737,68.8,98.1,inactive
sty (sprouty),DRSC22994,99.3,140,inactive
Vtld + CG42529,DRSC10102,86.6,128,inactive
CG6293,DRSC16011,122,100,inactive
PpD6 (Protein phosphatase D6),DRSC00774,116,123,inactive
PpD6 (Protein phosphatase D6),DRSC23331,87.6,163,inactive
CG32815,DRSC18177,64.6,150,active
CG32815,DRSC18179,90.1,144,inactive
CG15141,DRSC02441,90.1,88.7,inactive
CG15141,DRSC02442,151,154,inactive
CG12279,DRSC14495,64.6,191,active
crok (crooked),DRSC02593,100,164,inactive
crok (crooked),DRSC21349,140,87.3,inactive
CG34107,DRSC14554,126,103,inactive
PolZ2 (DNA polymerase zeta subunit 2),DRSC12325,189,150,inactive
mRpL41 (mitochondrial ribosomal protein L41),DRSC06257,107,166,inactive
